These results are taken from the supplement of paper PMC11006884.

By UniProt entry, the sequences of proteins in these tests, tags left out. Where a name states a change or a piece, a line headed by the entry shows the natural chain unless it says otherwise.
UniProt O00411: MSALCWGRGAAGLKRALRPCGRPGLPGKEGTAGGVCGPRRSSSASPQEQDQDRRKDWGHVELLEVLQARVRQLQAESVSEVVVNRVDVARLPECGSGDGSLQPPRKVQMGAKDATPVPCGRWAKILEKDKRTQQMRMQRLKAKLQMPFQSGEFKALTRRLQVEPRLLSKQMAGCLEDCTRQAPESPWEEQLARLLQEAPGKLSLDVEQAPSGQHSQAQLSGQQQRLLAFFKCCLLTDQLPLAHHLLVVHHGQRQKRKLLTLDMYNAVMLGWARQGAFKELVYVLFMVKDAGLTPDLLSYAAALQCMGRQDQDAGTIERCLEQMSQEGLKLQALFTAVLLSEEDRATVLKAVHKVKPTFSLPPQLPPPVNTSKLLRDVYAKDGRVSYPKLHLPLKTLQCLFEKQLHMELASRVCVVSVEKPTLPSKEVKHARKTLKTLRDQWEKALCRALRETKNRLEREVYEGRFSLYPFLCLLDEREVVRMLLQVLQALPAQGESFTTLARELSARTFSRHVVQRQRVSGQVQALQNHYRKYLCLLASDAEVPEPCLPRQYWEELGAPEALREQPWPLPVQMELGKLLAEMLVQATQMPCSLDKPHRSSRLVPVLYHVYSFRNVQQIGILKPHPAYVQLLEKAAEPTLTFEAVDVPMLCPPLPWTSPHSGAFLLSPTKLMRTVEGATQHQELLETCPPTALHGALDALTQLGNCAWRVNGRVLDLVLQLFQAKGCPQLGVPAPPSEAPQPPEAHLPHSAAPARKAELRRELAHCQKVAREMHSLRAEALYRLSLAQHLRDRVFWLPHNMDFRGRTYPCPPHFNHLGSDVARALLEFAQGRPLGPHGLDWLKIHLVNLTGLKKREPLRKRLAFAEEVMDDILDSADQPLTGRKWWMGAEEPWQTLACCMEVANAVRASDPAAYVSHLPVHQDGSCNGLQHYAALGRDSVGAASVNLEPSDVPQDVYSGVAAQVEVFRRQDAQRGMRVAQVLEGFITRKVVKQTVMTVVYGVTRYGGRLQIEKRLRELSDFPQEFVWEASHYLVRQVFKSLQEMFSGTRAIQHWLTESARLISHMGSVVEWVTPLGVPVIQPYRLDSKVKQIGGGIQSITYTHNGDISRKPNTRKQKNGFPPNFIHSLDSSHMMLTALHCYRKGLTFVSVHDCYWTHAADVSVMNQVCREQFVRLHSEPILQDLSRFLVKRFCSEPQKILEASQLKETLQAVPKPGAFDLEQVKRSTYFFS
UniProt O15269: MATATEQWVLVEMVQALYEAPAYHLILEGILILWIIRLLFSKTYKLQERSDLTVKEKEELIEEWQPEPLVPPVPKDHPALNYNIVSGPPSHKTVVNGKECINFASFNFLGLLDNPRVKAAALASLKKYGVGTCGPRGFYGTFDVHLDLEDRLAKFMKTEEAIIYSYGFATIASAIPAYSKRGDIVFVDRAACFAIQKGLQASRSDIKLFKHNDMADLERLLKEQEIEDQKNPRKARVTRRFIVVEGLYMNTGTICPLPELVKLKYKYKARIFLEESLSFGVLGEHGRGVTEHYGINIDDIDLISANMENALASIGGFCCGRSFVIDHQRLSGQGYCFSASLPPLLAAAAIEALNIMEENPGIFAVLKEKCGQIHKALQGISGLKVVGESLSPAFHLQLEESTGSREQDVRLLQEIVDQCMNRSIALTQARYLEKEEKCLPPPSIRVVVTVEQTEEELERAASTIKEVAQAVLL
UniProt O14763, whole entry: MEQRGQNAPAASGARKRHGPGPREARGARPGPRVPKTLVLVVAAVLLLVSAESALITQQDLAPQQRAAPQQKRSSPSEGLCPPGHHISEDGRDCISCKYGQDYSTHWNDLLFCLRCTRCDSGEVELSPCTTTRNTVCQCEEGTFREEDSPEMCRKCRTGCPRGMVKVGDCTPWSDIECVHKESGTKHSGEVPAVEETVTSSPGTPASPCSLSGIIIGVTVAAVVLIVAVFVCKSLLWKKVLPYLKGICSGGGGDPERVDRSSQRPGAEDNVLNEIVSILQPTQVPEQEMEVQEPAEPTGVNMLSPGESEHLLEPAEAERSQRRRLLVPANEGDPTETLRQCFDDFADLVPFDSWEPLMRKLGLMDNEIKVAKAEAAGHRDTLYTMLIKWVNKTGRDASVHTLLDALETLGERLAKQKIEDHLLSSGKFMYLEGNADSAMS
UniProt O00151: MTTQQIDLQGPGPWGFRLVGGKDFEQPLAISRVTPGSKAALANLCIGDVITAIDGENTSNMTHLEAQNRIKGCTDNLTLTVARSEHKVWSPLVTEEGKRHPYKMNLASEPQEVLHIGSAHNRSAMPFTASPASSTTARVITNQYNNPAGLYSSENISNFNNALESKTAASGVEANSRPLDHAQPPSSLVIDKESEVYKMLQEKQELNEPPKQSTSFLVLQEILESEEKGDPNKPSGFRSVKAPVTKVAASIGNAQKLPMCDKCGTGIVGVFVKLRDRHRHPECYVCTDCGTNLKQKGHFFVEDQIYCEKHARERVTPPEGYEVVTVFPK
UniProt O00629, whole entry: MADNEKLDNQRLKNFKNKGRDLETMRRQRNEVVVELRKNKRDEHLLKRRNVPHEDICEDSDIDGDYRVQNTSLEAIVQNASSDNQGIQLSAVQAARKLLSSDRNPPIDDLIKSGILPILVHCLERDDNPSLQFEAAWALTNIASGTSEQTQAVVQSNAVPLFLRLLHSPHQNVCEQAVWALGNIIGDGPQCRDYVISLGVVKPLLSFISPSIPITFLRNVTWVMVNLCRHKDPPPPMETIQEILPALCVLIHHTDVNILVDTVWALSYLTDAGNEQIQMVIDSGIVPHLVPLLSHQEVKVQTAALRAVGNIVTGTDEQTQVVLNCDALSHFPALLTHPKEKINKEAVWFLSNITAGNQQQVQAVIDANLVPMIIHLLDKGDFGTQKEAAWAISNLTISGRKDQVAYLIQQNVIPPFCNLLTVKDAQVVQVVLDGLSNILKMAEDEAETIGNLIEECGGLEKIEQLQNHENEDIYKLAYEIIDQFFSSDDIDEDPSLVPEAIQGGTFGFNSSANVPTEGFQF
UniProt O15417: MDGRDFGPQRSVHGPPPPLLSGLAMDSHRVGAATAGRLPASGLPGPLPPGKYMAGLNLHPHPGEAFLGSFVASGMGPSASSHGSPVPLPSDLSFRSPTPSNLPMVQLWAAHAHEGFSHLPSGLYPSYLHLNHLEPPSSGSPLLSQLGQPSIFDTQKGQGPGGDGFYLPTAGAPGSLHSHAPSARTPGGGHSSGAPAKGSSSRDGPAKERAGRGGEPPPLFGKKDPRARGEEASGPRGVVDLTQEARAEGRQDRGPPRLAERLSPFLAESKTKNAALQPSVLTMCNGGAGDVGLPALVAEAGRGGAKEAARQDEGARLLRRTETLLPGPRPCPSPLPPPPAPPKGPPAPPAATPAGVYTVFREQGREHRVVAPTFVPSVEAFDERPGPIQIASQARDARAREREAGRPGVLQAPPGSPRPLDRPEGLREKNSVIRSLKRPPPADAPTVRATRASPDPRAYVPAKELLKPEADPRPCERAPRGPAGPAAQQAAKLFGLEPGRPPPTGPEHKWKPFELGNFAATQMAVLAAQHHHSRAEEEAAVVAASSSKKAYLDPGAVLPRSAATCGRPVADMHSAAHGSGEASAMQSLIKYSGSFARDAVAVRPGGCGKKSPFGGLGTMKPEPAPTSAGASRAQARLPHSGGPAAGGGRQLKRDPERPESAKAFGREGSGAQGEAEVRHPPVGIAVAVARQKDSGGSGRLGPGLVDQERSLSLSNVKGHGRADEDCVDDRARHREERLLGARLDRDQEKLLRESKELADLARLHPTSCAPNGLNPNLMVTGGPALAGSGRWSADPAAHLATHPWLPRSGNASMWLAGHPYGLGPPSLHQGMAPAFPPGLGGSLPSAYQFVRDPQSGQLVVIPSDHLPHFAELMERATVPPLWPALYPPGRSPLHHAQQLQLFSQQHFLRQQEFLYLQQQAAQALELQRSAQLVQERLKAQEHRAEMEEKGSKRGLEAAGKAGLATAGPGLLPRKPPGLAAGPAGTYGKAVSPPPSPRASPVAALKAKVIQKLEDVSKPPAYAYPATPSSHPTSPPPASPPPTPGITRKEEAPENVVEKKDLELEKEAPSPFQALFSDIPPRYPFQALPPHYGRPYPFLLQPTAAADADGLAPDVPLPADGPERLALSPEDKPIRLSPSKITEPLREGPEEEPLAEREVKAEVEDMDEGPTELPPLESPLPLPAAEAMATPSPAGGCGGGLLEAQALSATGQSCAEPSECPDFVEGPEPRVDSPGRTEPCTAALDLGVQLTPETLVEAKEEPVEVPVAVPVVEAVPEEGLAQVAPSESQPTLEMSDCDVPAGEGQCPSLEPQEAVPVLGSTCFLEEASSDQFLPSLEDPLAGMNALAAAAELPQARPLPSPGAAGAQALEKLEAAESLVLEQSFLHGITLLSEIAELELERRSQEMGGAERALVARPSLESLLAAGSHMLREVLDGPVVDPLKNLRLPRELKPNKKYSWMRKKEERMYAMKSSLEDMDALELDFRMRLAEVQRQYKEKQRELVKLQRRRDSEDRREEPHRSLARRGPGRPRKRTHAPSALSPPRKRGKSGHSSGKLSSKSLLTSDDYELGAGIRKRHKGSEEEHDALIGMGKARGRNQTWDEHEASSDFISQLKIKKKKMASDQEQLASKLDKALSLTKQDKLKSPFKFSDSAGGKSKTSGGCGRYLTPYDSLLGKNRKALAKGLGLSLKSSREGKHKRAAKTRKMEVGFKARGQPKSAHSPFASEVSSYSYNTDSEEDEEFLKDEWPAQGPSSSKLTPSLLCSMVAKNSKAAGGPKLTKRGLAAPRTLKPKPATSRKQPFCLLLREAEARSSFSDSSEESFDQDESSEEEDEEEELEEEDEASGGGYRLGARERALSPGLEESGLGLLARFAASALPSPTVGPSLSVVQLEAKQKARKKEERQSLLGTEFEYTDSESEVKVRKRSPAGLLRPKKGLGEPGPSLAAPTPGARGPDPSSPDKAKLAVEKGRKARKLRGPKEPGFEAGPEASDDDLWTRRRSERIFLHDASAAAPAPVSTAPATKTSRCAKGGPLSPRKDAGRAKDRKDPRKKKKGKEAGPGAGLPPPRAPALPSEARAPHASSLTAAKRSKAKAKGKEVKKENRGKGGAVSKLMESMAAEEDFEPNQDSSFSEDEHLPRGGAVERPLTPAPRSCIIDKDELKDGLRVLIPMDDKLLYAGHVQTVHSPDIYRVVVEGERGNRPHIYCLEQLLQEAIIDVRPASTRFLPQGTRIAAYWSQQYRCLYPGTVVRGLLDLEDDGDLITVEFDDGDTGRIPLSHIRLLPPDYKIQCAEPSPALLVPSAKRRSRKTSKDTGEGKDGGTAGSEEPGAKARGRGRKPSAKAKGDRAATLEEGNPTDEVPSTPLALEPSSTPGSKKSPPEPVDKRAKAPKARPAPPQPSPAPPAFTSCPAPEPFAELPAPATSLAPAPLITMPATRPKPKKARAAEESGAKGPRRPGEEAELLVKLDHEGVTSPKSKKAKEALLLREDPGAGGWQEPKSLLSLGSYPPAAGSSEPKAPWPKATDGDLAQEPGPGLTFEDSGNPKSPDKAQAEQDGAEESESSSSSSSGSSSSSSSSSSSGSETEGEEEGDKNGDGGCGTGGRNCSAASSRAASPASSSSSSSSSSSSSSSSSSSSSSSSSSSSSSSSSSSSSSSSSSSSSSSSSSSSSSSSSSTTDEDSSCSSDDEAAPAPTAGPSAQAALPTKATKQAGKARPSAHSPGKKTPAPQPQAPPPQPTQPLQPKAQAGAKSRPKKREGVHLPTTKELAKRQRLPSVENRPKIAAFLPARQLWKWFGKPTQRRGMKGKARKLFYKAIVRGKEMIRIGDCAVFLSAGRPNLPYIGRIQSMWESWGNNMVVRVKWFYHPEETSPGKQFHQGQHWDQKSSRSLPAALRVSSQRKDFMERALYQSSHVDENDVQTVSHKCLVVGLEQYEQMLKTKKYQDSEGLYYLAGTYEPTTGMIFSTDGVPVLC
UniProt O15446, whole entry, looked up: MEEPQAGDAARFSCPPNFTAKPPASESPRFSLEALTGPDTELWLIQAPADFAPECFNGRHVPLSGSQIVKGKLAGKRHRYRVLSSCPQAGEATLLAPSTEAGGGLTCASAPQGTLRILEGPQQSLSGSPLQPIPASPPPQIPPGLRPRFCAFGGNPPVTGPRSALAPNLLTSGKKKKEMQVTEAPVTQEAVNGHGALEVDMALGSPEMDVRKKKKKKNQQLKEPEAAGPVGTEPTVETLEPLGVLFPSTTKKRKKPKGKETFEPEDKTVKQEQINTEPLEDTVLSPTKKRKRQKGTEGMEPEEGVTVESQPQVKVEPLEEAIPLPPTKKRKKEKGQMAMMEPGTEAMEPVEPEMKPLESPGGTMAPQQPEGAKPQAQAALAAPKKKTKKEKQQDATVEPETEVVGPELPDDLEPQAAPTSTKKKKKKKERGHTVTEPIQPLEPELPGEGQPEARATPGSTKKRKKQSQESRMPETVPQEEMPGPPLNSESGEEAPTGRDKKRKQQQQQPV

The list shows a part of the results, in another mix than the full data. This is a noisy data set.

Compound in the experiment: COC(=O)/C=C/c1ccccc1 [methyl cinnamate]
Description: log2 ratio of iodoacetamide-alkyne labeling of the cysteine site, DMSO over compound (competition); higher = stronger covalent engagement of the cysteine by the compound, active = 1 or more. As to conditions: 500 µM; treatment time 1 h; system: HEK293T cell lysate. In short, it runs like this: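 After 1 h at ambient temperature with vehicle or electrophile (500 µM), HEK293T lysate (2 mg/mL) was labelled for 1 h with iodoacetamide alkyne and clicked to sCIP-TMT reagents. Pooled samples were trypsin-digested overnight at 37 °C, streptavidin-enriched, acid-eluted and analysed by Orbitrap Eclipse LC-MS/MS with FAIMS, then quantified in FragPipe over three replicates with duplicate channels. A cysteine's log2 competition ratio is its mean control-channel over mean compound-channel reporter intensity. Cysteines quantified in only one replicate were not included.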
As to PHGDH C48 (UniProt O43175), the “log2 ratio of iodoacetamide-alkyne labeling” value (shortened to “log2 ratio”) is inactive: 0.115.

Consider SPTBN2 C1140 (UniProt O15020), for which the “log2 ratio” value is inactive: 0.0946.

As to POLRMT C413 (UniProt O00411), the “log2 ratio” value is inactive: 0.593. In the case of XPO1 C1070 (UniProt O14980) it was inactive: 0.206; in that of SPTLC1 C100 (UniProt O15269), inactive: -0.0803.

UniProt O00148_C164: the “log2 ratio” value was inactive: 0.189.

As to IPO5 C733 (UniProt O00410), the “log2 ratio” value is inactive: 0.0276.

For the target TNFRSF10B C341 (UniProt O14763), the “log2 ratio” value was inactive: -0.00341. The figure for IPO5 C750 (UniProt O00410) is inactive: 0.102; for PDLIM1 C45 (UniProt O00151) it is inactive: -0.0306. The figure for KPNA4 C122 (UniProt O00629) is inactive: 0.254; for TNRC18 C2204 (UniProt O15417) it is inactive: 0.207. In the case of PDHX C307 (UniProt O00330) it was inactive: 0.179; in that of CD3EAP C150 (UniProt O15446), inactive: 0.221; in that of TRIM24 C56 (UniProt O15164), inactive: -0.107. For NVL C687 (UniProt O15381), the “log2 ratio” value is inactive: -0.0614.
